Source: PubChem BioAssay AID540276 (National Center for Advancing Translational Sciences (NCATS), 2011)
Several values for one entry are separate records, joined by “and”; a condition that tells them apart may be missing. Identical values can stand only once. The whole screen tested about 300,000 compounds, of which about 5,400 (1.8%) were called active. This list was built around the results that the source calls inconclusive (neither active nor inactive); the mix of calls is not that of the screen. The call rests on the fitted dose curve; tested in HEK293 cells. Where the call is inconclusive, the potency comes from a doubtful curve fit.

Experiment: qHTS for inhibitors of binding or entry into cells for Marburg Virus
Conditions: Marburg virus pseudotyped entry inhibition, cell reporter; series mostly up to 37.8 µM
Potency means the concentration at half of the fitted maximal effect.

| Compound | Potency |
| --- | --- |
| CCCCCN1C(C(=O)c2ccccc2)=C(NC(=O)c2ccc(OC)cc2)c2ccccc2S1(=O)=O | inconclusive: 11.2 µM [activator, partial curve, poor fit] |
| c1ccc(-c2ccc(-c3nc(-c4ccncc4)no3)cc2)cc1 | inconclusive: 16.4 µM [inhibitor, single point] |
| Cc1ccc(NC2CCCN(C(=O)c3c(C)noc3C)C2)cc1C (configuration not stated) | inactive |
| FCCCOc1ccc(-c2ccnc(-c3ccccc3)n2)cc1 | inactive |
| Cc1ccc(C(C(=O)NCc2ccc(F)cc2)N(C(=O)c2csnn2)C2CC2)cc1 (configuration not stated) | inconclusive: 5.62 µM [inhibitor, partial curve, poor fit] |
| CCC(C)(C)n1nnnc1C(c1ccccc1F)N1CCC(C(N)=O)CC1 (configuration not stated) | inconclusive: 35.5 µM [inhibitor, single point] |
| O=C(c1cc2c(ccc3ccccc32)o1)N1CCCCC1 | inconclusive: 0.562 µM [activator, full curve, poor fit] |
| CCC(C)N(NC(C)=O)c1nc(Cl)nc(NC(C)(C)C)n1 (configuration not stated) | inconclusive: 2.82 µM [activator, full curve, poor fit] |
| O=S(=O)(c1ccc(NC(=S)N2CCN(c3ccccc3F)CC2)cc1)N1CCOCC1 | inconclusive: 35.5 µM [inhibitor, single point] |
| O=C(/C=C/c1ccccc1)N1CCC(c2ccccc2)C1 (configuration not stated) | inconclusive: 16.4 µM [inhibitor, single point] |
| CCCC[C@]12Cc3ccccc3[C@H](O1)c1c(cc(-c3ccccc3)oc1=O)O2 | inconclusive: 0.0119 µM [inhibitor, full curve, poor fit] |
| O=C(CSc1nc2ccsc2c(=O)n1NC(=O)c1ccccc1)Nc1nccs1 | inactive |
| COc1ccc(C(=O)NC(=S)NNC(=O)COc2ccccc2)cc1 | inconclusive: 35.5 µM [inhibitor, single point] |
| CCOC(=O)Cc1csc(NC(=O)c2cccc(OC)c2)n1 | inactive |
| CN(C)C(=O)c1ccc(-n2nc(C(F)(F)F)c3c2CCCC3)cc1 | inconclusive: 8.91 µM [inhibitor, partial curve] |
| C(=N\n1cnnc1)/c1ccccn1 | inconclusive: 29.1 µM [inhibitor, single point] |
| COc1ccc(CN(C)CC(=O)Nc2c(C)cccc2C)c(OC)c1 | inactive |
| COc1ccc(/C=C2\Sc3ccc(C(=O)NCc4cccnc4)cc3N(C)C2=O)cc1OC | inconclusive: 8.2 µM [inhibitor, partial curve] |
| Cc1ccc(NC(=O)CSc2nnnn2-c2ccc3c(c2)OCO3)cc1C | inconclusive: 8.91 µM [inhibitor, partial curve, poor fit] |
| CN(CC(=O)Nc1cccc(F)c1)C(=O)c1ccccc1OCC(=O)Nc1cccc(C(F)(F)F)c1 | inactive |
| O=C(CCNC(=O)c1ccco1)Nc1nc2ccccc2s1 | inactive |
| O=[N+]([O-])c1ccc(N2CCOCC2)cc1O | inactive |
| COc1ccc(Cl)cc1C(=O)Nc1ccccc1N1CCN(C(=O)C(C)C)CC1 | inconclusive: 20.6 µM [inhibitor, single point] |

| Compound | Potency |
| --- | --- |
| O=C(O)CC/C(=N\NC(=O)c1ccccc1)c1cccs1 | inactive |
| COc1ccccc1N1CCN(Cc2ccc(C(=O)O)cc2)CC1 | inconclusive: 6.31 µM [inhibitor, partial curve, poor fit] |
| CC(=O)c1nc(N2C(=O)C3CC=C(C)CC3C2=O)sc1C (configuration not stated) | inconclusive: 2.06 µM [activator, partial curve, poor fit] |
| c1ccc2c(c1)Cc1cc(CN3CCOCC3)ccc1-2 | inconclusive: 4.11 µM [activator, partial curve, poor fit] |
| CCCCc1ccc(-c2csc(/C(C#N)=C/c3ccco3)n2)cc1 | inconclusive: 14.1 µM [activator, partial curve, poor fit] |
| O=C(COC(=O)/C(=C/c1cccs1)c1cccs1)NC(c1ccccc1)c1ccccc1 | inconclusive: 20 µM [inhibitor, single point] |
| Cc1ccc(CCN2C(=O)c3ccccc3C2C(=O)NCc2cccnc2)cc1 (configuration not stated) | inconclusive: 0.562 µM [inhibitor, full curve, poor fit] |
| O=C(CSc1n[nH]c(-c2cccs2)n1)NCc1cccs1 | inactive |
| C/C(=N\NC(=O)c1csc(C)c1C)c1ccco1 | inconclusive: 0.0052 µM [activator, full curve] |
| Cc1ccc(SCCNC(=O)c2ccc(C)c(S(=O)(=O)Nc3cccc(C)c3)c2)cc1 | inconclusive: 20.6 µM [inhibitor, single point] |
| CC1CCC(NC(=O)c2ccc3nc[nH]c3c2)CC1 (configuration not stated) | inactive |
| Cc1[nH]c2ccccc2c1C(=O)/C=C\c1ccccc1Cl | inconclusive: 35.5 µM [inhibitor, single point] |
| O=C(Nc1cccc(Cl)c1)C1C2CCC3C(CCC21)C3(Cl)Cl (configuration not stated) | inconclusive: 10 µM [inhibitor, partial curve, poor fit] |
| Cc1nccn1CC(=O)N/N=C/c1cccs1 | inactive |
| Cc1ncsc1C(=O)N1N=C2/C(=C/c3ccc(N4CCOCC4)cc3)CCCC2C1c1ccc(N2CCOCC2)cc1 (configuration not stated) | inconclusive: 20.6 µM [inhibitor, single point] |
| COc1cccc(-c2nc(CCl)cs2)c1 | inconclusive: 3.16 µM [activator, single point] |
| Cc1ccc2nc(-c3ccc(NC(=O)CSc4nccc(=O)[nH]4)cc3)sc2c1 | inconclusive: 35.5 µM [inhibitor, single point] |
| Oc1cccc(CCC2CCCCN2Cc2cn[nH]c2-c2ccc3c(c2)OCO3)c1 (configuration not stated) | inconclusive: 11.2 µM [inhibitor, partial curve, poor fit] |
| O=Nc1c(-c2c(O)[nH]c3ccccc23)[nH]c2ccccc12 | inconclusive: 2.91 µM [activator, partial curve] and inconclusive: 10 nM [activator, full curve, poor fit] |
| O=C(NCC(=O)N1CCN(c2ccccc2O)CC1)C1CCCCC1 | inactive |
| COc1ccc(NC(=O)O/N=C2/CCCc3ccc(OC)cc32)cc1 | inconclusive: 8.2 µM [inhibitor, partial curve] |
| O=C(CCNS(=O)(=O)c1ccc(OC(F)(F)F)cc1)NCCc1c[nH]c2ccccc12 | inconclusive: 3.98 µM [activator, single point] |
| Cc1ccc(-c2nc(N(C)C3CCN(C)CC3)c3ccccc3n2)cc1 | inconclusive: 29.1 µM [inhibitor, single point] |

| Compound | Potency |
| --- | --- |
| COc1ccc(-c2cc(C(=O)N/N=C/c3ccc(OC)c(COCC(F)(F)C(F)F)c3)c3ccccc3n2)c(OC)c1 | inconclusive: 4.47 µM [inhibitor, full curve] |
| NC(=O)N/N=C\c1cc(Br)ccc1O | inactive |
| COc1ccc(OC)c(Nc2ncnc3ccccc23)c1 | inconclusive: 35.5 µM [inhibitor, single point] |
| O=C(NC1CCCCC1)C1CN(S(=O)(=O)c2ccccc2)CCN1S(=O)(=O)c1ccccc1 (configuration not stated) | inconclusive: 20.6 µM [inhibitor, single point] |
| CCCn1c(SCC(=O)Nc2ccc3c(c2)CCC3)n[nH]c1=O | inactive |
| CCOC(=O)/C=C1/SCC(=O)N1CC(=O)NC12CC3CC(CC(C3)C1)C2 | inconclusive: 0.562 µM [inhibitor, full curve, poor fit] |
| CC(Oc1ccc(F)cc1)C(=O)Nc1sc2c(c1C(=O)NCc1cccnc1)CCCC2 (configuration not stated) | inactive |
| O=C(c1cc(-c2ccc(Cl)cc2)n(-c2ccc(Cl)c(Cl)c2)n1)N1CCOCC1 | inconclusive: 20 µM [inhibitor, partial curve, poor fit] |
| O=C(NCC1CCCO1)c1cc(Br)c(Br)s1 (configuration not stated) | inactive |
| Cc1ccccc1CSc1ncc(C#N)c(N)n1 | inactive |
| COc1ccc(/C=C/C(=O)NC(=S)NNC(=O)c2cccs2)cc1 | inconclusive: 2.82 µM [inhibitor, full curve] |
| CCCCOC(=O)c1c(N)n(-c2ccc(OC)cc2OC)c2nc3ccccc3nc12 | inactive |
| CC(C)=CC(=O)N1CCCC(N2CCN(c3ccccc3C)CC2)C1 (configuration not stated) | inconclusive: 7.08 µM [activator, partial curve] |
| O=C(CCCOc1ccccc1)Nc1ncccn1 | inconclusive: 8.91 µM [activator, partial curve, poor fit] |
| CN(C)CCN1C(=O)c2oc3ccc(Cl)cc3c(=O)c2C1c1cccc(Br)c1 (configuration not stated) | inactive |
| CC(=O)Nc1cc(NC(=O)CCCC(=O)O)ccc1Cl | inconclusive: 0.891 µM [activator, full curve, poor fit] |
| Cc1ccc(N(C(=O)c2csnn2)C(C(=O)NC2CCCC2)c2cccnc2)c(C)c1 (configuration not stated) | inconclusive: 6.31 µM [inhibitor, single point] |
| COCCCNC(=O)c1c(NC(=O)Cc2coc3c(C)c(C)ccc23)sc2c1CCCC2 | inconclusive: 4.47 µM [inhibitor, full curve, poor fit] |
| Cc1cc(C(F)(F)F)c2c(N)c(C(=O)Nc3cc(C)on3)sc2n1 | inconclusive: 2.06 µM [activator, partial curve, poor fit] |
| CN(C)S(=O)(=O)c1ccc(N2CCCC2)c(C(=O)Nc2nc3c(ccc4ccccc43)s2)c1 | inconclusive: 7.08 µM [inhibitor, full curve] |
| CC(NS(=O)(=O)c1cccc(S(=O)(=O)c2ccccc2)c1)C(=O)O (configuration not stated) | inconclusive: 4.47 µM [activator, partial curve, poor fit] |
